Measured values as given in article PMC9733332.
Results are given in words; binding and its absence hold for the method and conditions named. Binding seen in cells or lysates may run through a third protein. Some results given as binding are weak or reduced against the parent protein; the word gives no strength.

The chains behind the UniProt entries cited, without tags or fusion partners. Residues count along the entry.
GFP-TDP-CTF (25-kDa C-terminal fragment of TDP-43, 208–414) (Q13148, residues 208-414): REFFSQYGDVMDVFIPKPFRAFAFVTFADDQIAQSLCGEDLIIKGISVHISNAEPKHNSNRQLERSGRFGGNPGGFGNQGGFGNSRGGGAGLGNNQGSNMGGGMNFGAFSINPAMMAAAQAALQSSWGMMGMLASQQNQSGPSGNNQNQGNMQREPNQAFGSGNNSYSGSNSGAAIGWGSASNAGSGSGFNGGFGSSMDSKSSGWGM
GFP-TDP-PrLD (prion-like domain of TDP-43, aa275–414) (Q13148, residues 275-414): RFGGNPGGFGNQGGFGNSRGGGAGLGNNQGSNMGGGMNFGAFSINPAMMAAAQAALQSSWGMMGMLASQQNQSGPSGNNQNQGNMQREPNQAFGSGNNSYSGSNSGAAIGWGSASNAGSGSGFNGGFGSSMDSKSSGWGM
UniProt P52948, residues 1-880: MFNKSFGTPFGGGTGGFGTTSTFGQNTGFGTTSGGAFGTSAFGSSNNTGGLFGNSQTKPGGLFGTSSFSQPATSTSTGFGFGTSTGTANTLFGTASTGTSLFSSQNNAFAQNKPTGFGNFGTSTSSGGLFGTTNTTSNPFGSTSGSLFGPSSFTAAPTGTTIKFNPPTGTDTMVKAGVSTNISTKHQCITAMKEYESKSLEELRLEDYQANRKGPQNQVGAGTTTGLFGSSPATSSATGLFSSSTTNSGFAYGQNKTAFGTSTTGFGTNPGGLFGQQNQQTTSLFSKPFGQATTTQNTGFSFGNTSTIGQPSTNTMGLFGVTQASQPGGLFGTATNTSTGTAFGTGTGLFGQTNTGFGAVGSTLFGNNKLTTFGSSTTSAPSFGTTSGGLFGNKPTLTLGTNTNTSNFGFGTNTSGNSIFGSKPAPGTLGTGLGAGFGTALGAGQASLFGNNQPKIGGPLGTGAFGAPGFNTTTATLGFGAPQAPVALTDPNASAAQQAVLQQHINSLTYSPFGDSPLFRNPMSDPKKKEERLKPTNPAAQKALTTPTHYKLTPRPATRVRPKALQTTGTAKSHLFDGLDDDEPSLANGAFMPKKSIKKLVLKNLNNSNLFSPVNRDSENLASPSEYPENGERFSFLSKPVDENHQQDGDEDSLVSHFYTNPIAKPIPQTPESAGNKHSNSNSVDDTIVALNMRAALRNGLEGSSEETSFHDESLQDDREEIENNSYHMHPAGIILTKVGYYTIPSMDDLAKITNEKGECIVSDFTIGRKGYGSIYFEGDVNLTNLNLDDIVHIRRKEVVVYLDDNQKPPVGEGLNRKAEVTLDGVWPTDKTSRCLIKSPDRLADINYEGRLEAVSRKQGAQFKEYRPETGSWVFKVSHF
UniProt P37198: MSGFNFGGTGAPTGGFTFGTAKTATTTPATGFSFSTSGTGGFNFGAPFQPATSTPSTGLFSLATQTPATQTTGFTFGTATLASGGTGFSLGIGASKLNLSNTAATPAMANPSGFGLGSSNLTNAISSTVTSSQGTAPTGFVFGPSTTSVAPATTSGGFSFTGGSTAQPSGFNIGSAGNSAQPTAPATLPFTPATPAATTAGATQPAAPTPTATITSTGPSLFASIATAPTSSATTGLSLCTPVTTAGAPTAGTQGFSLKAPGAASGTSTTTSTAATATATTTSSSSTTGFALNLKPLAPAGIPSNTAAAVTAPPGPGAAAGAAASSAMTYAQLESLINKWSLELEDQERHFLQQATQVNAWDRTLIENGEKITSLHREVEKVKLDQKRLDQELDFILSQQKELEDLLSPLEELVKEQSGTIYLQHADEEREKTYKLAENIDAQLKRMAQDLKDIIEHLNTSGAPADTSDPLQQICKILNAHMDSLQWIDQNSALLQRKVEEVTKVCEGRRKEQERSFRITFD

How the values were obtained:
[1] = target: GFP-TDP-CTF (25-kDa C-terminal fragment of TDP-43, 208–414) (human) (UniProt Q13148); experiment: co-IP; GFP-Trap magnetic beads on lysates of HEK293T cells expressing GFP-tagged TDP-43 constructs (bait); endogenous partners detected by western blot (called pull-down in the text for TDP-PrLD)
[2] = target: GFP-TDP-PrLD (prion-like domain of TDP-43, aa275–414) (human) (UniProt Q13148); experiment: as above

binding [1]	binding [2]	Substance
binds	binds	Nup98 (endogenous) (from UniProt P52948 1-880)
binds	binds	Nup62 (endogenous) (from UniProt P37198 1-522)
